PMC5667882
These are yes or no findings as the source states them, for the method shown. In cells and extracts the contact can be indirect. Here binding means that the protein was enriched with, or labelled near, the bait; the list need not be complete. Each block holds one molecule with its values, some of them ahead of it.

Sequences of proteins named here, by UniProt entry; tags and fusion partners are left off. A change or cut given only in a name is not applied to a line headed by its entry.
UniProt Q869J2: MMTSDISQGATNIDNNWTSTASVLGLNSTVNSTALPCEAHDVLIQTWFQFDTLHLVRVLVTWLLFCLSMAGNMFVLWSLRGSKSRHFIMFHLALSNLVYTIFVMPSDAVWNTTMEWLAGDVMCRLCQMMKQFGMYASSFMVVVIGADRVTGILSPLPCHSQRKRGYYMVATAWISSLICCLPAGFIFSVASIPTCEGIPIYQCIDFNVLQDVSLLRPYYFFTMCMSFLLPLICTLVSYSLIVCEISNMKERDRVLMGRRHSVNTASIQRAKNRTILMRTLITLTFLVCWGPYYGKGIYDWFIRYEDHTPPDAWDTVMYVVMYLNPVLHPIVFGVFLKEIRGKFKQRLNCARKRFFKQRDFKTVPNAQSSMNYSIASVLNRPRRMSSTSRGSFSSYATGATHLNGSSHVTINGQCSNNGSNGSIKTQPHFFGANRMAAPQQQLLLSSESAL
UniProt Q62053: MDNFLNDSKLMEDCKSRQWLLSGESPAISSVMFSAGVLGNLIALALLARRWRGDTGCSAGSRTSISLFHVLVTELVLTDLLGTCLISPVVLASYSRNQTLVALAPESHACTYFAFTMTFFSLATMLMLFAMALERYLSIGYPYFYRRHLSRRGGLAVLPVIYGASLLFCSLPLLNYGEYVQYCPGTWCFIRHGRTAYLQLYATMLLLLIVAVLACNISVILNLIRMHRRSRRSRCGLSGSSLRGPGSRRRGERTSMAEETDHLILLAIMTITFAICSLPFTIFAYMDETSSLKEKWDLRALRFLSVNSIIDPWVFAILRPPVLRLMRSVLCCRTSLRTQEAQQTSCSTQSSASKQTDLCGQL
UniProt D2KZ69: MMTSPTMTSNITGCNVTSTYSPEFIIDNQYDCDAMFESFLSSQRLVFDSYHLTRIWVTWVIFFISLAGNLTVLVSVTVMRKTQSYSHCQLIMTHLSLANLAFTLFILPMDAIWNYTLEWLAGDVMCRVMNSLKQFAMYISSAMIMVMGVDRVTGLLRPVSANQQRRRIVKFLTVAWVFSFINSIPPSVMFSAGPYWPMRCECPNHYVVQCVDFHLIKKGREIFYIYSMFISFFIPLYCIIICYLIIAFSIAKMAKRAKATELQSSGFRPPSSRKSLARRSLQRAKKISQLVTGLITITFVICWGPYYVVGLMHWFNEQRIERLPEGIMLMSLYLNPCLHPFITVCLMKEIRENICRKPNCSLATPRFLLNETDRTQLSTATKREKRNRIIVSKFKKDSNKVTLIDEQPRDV

How the values were obtained:
[1] = biological target: V5-tagged Ciona intestinalis gonadotropin-releasing hormone (GnRH) receptor 1 (Ci-GnRHR1) (Ciona intestinalis) (UniProt Q869J2); test: affinity purification with mass spectrometry; Co-IP with anti-V5 antibody from membrane proteins of HEK293MSR cells expressing R1V5 and R4Myc, protease digestion, nano-LC-MS/MS, database assignment
[2] = biological target: prostaglandin E2 (PGE2) receptor 2 (EP2) (mouse (endogenous in OV3121)) (UniProt Q62053); test: affinity purification with mass spectrometry; 800 ug OV3121 membrane proteins in RIPA buffer, Co-IP overnight at 4°C with 6 ug rabbit monoclonal anti-EP2 antibody and protein G sepharose, SDS-PAGE, in-gel trypsin/Lys-C digestion with SDC, nano-LC-Orbitrap MS/MS

binding [1]: binds
Molecule: Myc-tagged Ciona intestinalis gonadotropin-releasing hormone (GnRH) receptor 4 (Ci-GnRHR4) (from UniProt D2KZ69)

binding [2]: binds
B1: calcitonin (CT) receptor (CTR) (receptor, UniProt Q60755 42-533)
chain: APTNLTDSGLDQEPFLYLVGRKKLLDAQYKCYDRIHQLPSYEGEGLYCNRTWDGWMCWDDTPAGATAYQHCPDYFPDFDTAEKVSKYCDENGEWFRHPDSNRTWSNYTLCNAFTSEKLQNAYVLYYLALVGHSLSIAALVASMLIFWIFKNLSCQRVTLHKHMFLTYILNSIIIIIHLVEVVPNGDLVRRDPMHIFHHNTHMWTMQWELSPPLPLSAHEGKMDPHASEVISCKVLHFLHQYMMSCNYFWMLCEGIYLHTLIVMAVFTDEQRLRWYYLLGWGFPIVPTIIHAITRALYYNDNCWLSAETHLLYIIHGPVMVALVVNFFFLLNIVRVLVTKMRQTHEAESYMYLKAVKATMVLVPLLGIQFVVFPWRPSNKVLGKIYDYLMHSLIHFQGFFVATIYCFCNHEVQVTLKRQWTQFKIQWSQRWGRRRRPTNRVVSAPRAVAFAEPDGLPIYICHQEPRNPPISNNEGEESTEMIPMNVIQQDASA
